Earlier results as cited in patent US20170182088A1, “METHOD AND APPARATUS FOR ADMINISTERING NITRIC OXIDE WITH SUPPLEMENTAL DRUGS” (GENO LLC, priority 2015, published 2017).
For at least one compound, name, drawing or mass did not settle the structure.

Experiments:
[1] = system: endothelial SOD; details: by stimulating VEGF production from adjacent vascular smooth muscle cells; cited from earlier work
[2] = system: CTGF; details: all fibroblast lines; cited from earlier work

In the case of COC(=O)C1=C(C)NC(C)=C(C(=O)OC)C1c1ccccc1[N+](=O)[O-] [nifedipine, Nifedipine], the “endothelial SOD expression” value [1] is given as “indirectly upregulates”.

In the case of CCC(C)(C)C(=O)O[C@H]1C[C@@H](C)C=C2C=C[C@H](C)[C@H](CC[C@@H]3C[C@@H](O)CC(=O)O3)[C@H]21 [Simvastatin], the “basal CTGF gene and protein expression” value [2] is listed as “reduces”.
